Results as given in PubChem BioAssay AID2685 (National Center for Advancing Translational Sciences (NCATS), 2010).
The other results are listed elsewhere or left out. The main result of the screen is listed elsewhere. These columns were measured beside it and carry no call. The list favours compounds with an active or inconclusive main result. Potencies come from curve fits of mixed quality, noted in brackets.

Assay: qHTS Assay for Lipid Storage Modulators in Drosophila S3 Cells;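 as to cell number change: cells counted by Cell Tracker Red CMTPX staining in the red channel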
Settings: BODIPY lipid droplet fluorescence, 18-24 h; for cell number change: measured here: cell count max response, cells fed with added oleic acid
Method in brief: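 Drosophila S3 cells got compounds at several concentrations plus oleic acid (400 uM solution). Laser-scanning cytometry with 488 nm excitation read lipid droplets at 500-530 nm and cells at 575-640 nm. Percent activity was relative to 20 uM Triacsin C.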

[1] = measured here: lipid fluorescence (Fed channel) AC50, cells fed with added oleic acid
[2] = measured here: cell number channel AC50, cells fed with added oleic acid

Row | Structure (SMILES) | cell number change [%] | AC50 [1] | AC50 [2]
1 | NC(=O)C1CCN(CC(=O)Nc2cc(Cl)ccc2Oc2ccccc2)CC1 | -7.2 | 5.8 µM [falling, single point] | –
2 | CCOC(=O)c1c(NC(=O)CSc2n[nH]c(N)n2)sc(CC)c1C | 1.19 | 3.26 µM [rising, single point] | –
3 | CCn1c(SCC(=O)N2CCCc3ccccc32)nnc1-c1cccs1 | – | 3.26 µM [rising, partial curve] | –
4 | CC1(C)Cc2c(cnn2-c2cccc(F)c2)C(NC(=O)CSc2ccccn2)C1 (centres undefined) | -8.26 | 0.82 µM [falling, single point] | –
5 | CCCOC(=O)c1[nH]c2c(c1C)C(=O)CC(c1cccs1)C2 (centres undefined) | -27.8 | 14.6 µM [falling, partial curve, poor fit] | 1.46 µM [falling, full curve, poor fit]
6 | CN(CCC1CCCCO1)C(=O)CCc1nnc(Cc2c[nH]c3ccccc23)o1 (centres undefined) | 30.4 | – | 3.66 µM [rising, full curve, poor fit]
7 | CCOc1c(Br)cc(/C=N\NC(=O)c2ccccc2)cc1OC | – | 14.6 µM [rising, partial curve] | –
8 | CN(C(=O)COC(=O)Cc1c(Cl)cccc1Cl)C1CCS(=O)(=O)C1 (centres undefined) | -17 | 0.103 µM [falling, full curve, poor fit] | –
9 | CCCN1CCC(=O)N([C@H](CN=[N+]=[N-])CC(C)C)CC1 | 7.77 | – | –
10 | C=CCn1c(SCC(=O)c2c(N)n(CCC)c(=O)n(C)c2=O)nc2sc(CC)cc2c1=O | 84.1 | 1.03 µM [rising, full curve] | –
11 | CCSC1=NCCN1C(=O)c1c(-c2ccccc2Cl)noc1C | 105 | 29.1 µM [rising, single point] | 29.1 µM [rising, single point]
12 | O=C(NC1CCCC1)c1cccc2c1C(=O)c1ccc(/C=C/c3ccccc3)cc1S2(=O)=O | -8.93 | – | –
13 | OC(CNCCc1ccc(C(F)(F)F)cc1)COc1cccc2ccccc12 (centres undefined) | -87.3 | – | 18.4 µM [falling, single point]
14 | Cc1cc(S(=O)(=O)Nc2ccc(C(=O)N3CCN(C(=O)c4ccco4)CC3)cc2)ccc1F | 31.9 | – | –
15 | COc1ccc(NC(=O)CN(C)CC(=O)Nc2ccc3c(c2)CCC3)cc1 | 16.8 | 8.2 µM [rising, partial curve] | –
16 | COc1ccc2c(c1)CC/C(=C\Nc1ccc3c(c1)OCO3)C2=O | – | 3.26 µM [rising, partial curve, poor fit] | 0.206 µM [rising, full curve]
17 | CC(C)CCNC(=O)C1CCCN(S(=O)(=O)c2ccc(F)cc2)C1 (centres undefined) | -1.76 | – | –
18 | COc1ccccc1NS(=O)(=O)c1ccc2c(c1)NC(=O)C(C)S2 (centres undefined) | -56.1 | 29.1 µM [falling, partial curve, poor fit] | –
19 | CCOC(=O)c1c(C)[nH]c(C(=O)COC(=O)/C=C/c2ccc(OCC#N)c(OC)c2)c1C | 54.7 | – | 23.1 µM [rising, partial curve]
20 | COC(=O)c1cc(OC)c(OC)cc1NC(=O)c1cc(C(C)(C)C)oc1C | -21.7 | 5.17 µM [rising, partial curve, poor fit] | –
21 | O=C(NNc1ccccc1[N+](=O)[O-])NC1CCCCC1 | -46.4 | – | 0.206 µM [falling, full curve, poor fit]

Row | Structure (SMILES) | cell number change [%] | AC50 [1] | AC50 [2]
22 | O=S(=O)(NC1c2cccc3cccc(c23)C1N1CCNCC1)c1ccc(Cl)cc1 (centres undefined) | -17.3 | 32.6 µM [falling, single point] | –
23 | CCOC(=O)N1CCN(S(=O)(=O)c2c(C)[nH]c(=O)[nH]c2=O)CC1 | -207 | 25.9 µM [falling, partial curve] | 29.1 µM [falling, partial curve]
24 | O=C1CCCN2N=C(SCC(=O)Nc3cccc(Cl)c3)SC2=N1 | -18.1 | – | –
25 | CC(Sc1nc2cc([N+](=O)[O-])ccc2n1-c1cccc(C(F)(F)F)c1)C(=O)NC(N)=O (centres undefined) | -16.9 | 6.51 µM [falling, single point] | –
26 | CCCN(CC(=O)Nc1ccccc1OC)C(=O)c1ccc2ncsc2c1 | -2.98 | 0.651 µM [rising, full curve, poor fit] | –
27 | Cc1ccc(S(=O)(=O)N2CCN(C(=O)c3ccccc3OCc3c(C)noc3C)CC2)cc1C | 77.9 | – | 8.2 µM [rising, partial curve]
28 | O=C(COC(=O)COc1ccccc1[N+](=O)[O-])NC1CCCCC1 | 23.8 | 9.2 µM [falling, partial curve] | –
29 | Cc1ccccc1C(=O)Nc1ccc(S(=O)(=O)Nc2onc(C)c2C)cc1 | 34.2 | – | –
30 | COc1ccc(S(=O)(=O)N2CCCCCC2)cc1C(=O)OCc1cccc(OC)c1OC | -38.8 | 23.1 µM [falling, single point] | 16.4 µM [falling, single point]
31 | O=C(Nc1ccc(Cl)cc1)Nc1nc(-c2sccc2Br)cs1 | -17.4 | 2.91 µM [rising, single point] | 0.00461 µM [falling, full curve, poor fit]
32 | CSc1snc(SCC(N)=O)c1C#N | -0.639 | 0.13 µM [falling, full curve, poor fit] | 0.13 µM [falling, full curve, poor fit]
33 | COc1ccc(NC(=S)NNc2ccc([N+](=O)[O-])cc2S(=O)(=O)Nc2ccc(C)cc2C)cc1 | -35 | 0.0206 µM [falling, full curve, poor fit] | 29.1 µM [falling, single point]
34 | CC(C)C(=O)Nc1ccc(S(=O)(=O)Nc2ccccn2)cc1 | 43.5 | 18.4 µM [rising, partial curve] | –
35 | COc1ccc(N2CCN(C(CNC(=O)c3ccc4c(c3)OCO4)c3ccco3)CC2)cc1 (centres undefined) | 24.8 | 13 µM [rising, partial curve] | –
36 | CC(OC(=O)c1cccs1)C(=O)NCc1ccco1 (centres undefined) | -11.1 | 0.13 µM [falling, full curve, poor fit] | –
37 | CC(C)(C)c1ccc(-c2n[nH]c(=S)n2C2CCCC2)cc1 | -25.2 | – | –
38 | O=C(CSc1nnc(NC(=O)c2ccco2)s1)Nc1ccc2c(c1)OCCO2 | 8.5 | – | –
39 | CC(C)Oc1ccc(C(=O)Nc2ccc3c(c2)n(C)c(=O)n3C)cc1 | – | 29.1 µM [falling, single point] | –
40 | Cc1ccc(Cn2c(SCC(=O)N/N=C/c3ccc(C)o3)nc3ccccc32)cc1 | 17.5 | – | –
41 | N=C1C(c2nc3ccccc3s2)=C(O)CN1CCCO | 15.2 | – | –
42 | CC(=O)c1ccc(N(CC(=O)NC2CCCC2)C(=O)c2csnn2)cc1 | -6.67 | – | –

Row | Structure (SMILES) | cell number change [%] | AC50 [1] | AC50 [2]
43 | CCOc1ccc(/C=C2/SC(=S)N(n3c(C)ccc3C)C2=O)cc1 | -60.1 | 18.4 µM [falling, single point] | 29.1 µM [falling, single point]
44 | Cc1cccc2sc(NC(=O)CCNS(=O)(=O)c3cccs3)nc12 | 21.9 | 0.00517 µM [falling, full curve, poor fit] | –
45 | O=C(CCNC(=O)OCc1ccccc1)NC1CCCCCC1 | -7.09 | 3.66 µM [falling, partial curve] | –
46 | N#CC1=C(N)C(C#N)(C#N)C(c2cccnc2)C2CN(C(=O)OCc3ccccc3)CC=C12 (centres undefined) | -61.1 | 18.4 µM [falling, partial curve] | 8.2 µM [falling, partial curve]
47 | CCN(CC)CCCNC(=O)c1ccc(N2CCCCC2)c(NS(=O)(=O)c2ccc(C)cc2)c1 | -10.7 | 0.651 µM [falling, single point] | –
48 | CCC(=O)Nc1cc(C)c(NC(=O)CCc2ccccc2)cn1 | -11 | 29.1 µM [falling, single point] | –
49 | CC(=O)Nc1ccc(S(=O)(=O)N2CCN(Cc3cccc([N+](=O)[O-])c3)CC2)cc1 | -32 | 2.31 µM [falling, partial curve, poor fit] | –
50 | CC(C)S(=O)(=O)N1CCCC(C(=O)c2cccc(Cl)c2)C1 (centres undefined) | 7.54 | 0.116 µM [rising, full curve, poor fit] | –
51 | CCN1C(=O)S/C(=C\c2ccc(N3CCOCC3)cc2C)C1=O | -29.3 | 7.31 µM [falling, partial curve] | –
52 | Cc1nnsc1S(=O)(=O)Cc1ccccc1Cl | -16 | – | –
53 | NC(=O)c1ccsc1NC(=O)c1ccco1 | -12.1 | 0.82 µM [rising, single point] | –
54 | COc1ccc(S(=O)(=O)CCC(=O)O)cc1 | -14.4 | 23.1 µM [falling, partial curve] | –
55 | Cc1cccc(C)c1NC(=O)COC(=O)C1Cc2ccccc2CN1C(=O)c1ccccc1 (centres undefined) | 8.71 | – | –
56 | N#Cc1c(NC(=O)CN2CCN(C(=O)c3ccco3)CC2)sc2c1CCCCC2 | 53.1 | 29.1 µM [rising, partial curve, poor fit] | 29.1 µM [rising, single point]
57 | CC1(c2ccccc2)NC(=O)N(CC(=O)NNC(=O)c2cccc(Cl)c2)C1=O (centres undefined) | -16.9 | 3.26 µM [rising, full curve] | –
58 | Cc1ccc(-c2csc(/C(C#N)=C/Nc3ccc4c(c3)OCCO4)n2)cc1 | 11.3 | 0.0291 µM [rising, single point] | –
59 | O=C1Cc2cc([N+](=O)[O-])ccc2N1c1c(Cl)cccc1Cl | – | 29.1 µM [falling, single point] | –
60 | O=C(Cc1ccc(Cl)cc1)Nc1ccccc1C(=O)N1CCCC1 | -21.3 | – | –
61 | Cc1cc(C)n(-c2nc(Nc3ccccc3C)nc(-n3nc(C)cc3C)n2)n1 | -20.4 | 29.1 µM [falling, single point] | –

Reprinted: entries 52–53
Row | Structure (SMILES) | cell number change [%] | AC50 [1] | AC50 [2]
52 | Cc1nnsc1S(=O)(=O)Cc1ccccc1Cl | -16 | – | –
53 | NC(=O)c1ccsc1NC(=O)c1ccco1 | -12.1 | 0.82 µM [rising, single point] | –
